Results reported in paper PMC6925144, “A prospective compound screening contest identified broader inhibitors for Sirtuin 1” (Scientific Reports, 2019).
Whole data set: some 3,200 compounds, median “TSA(with NAD+) / Primary screening (TSA) / delta Tm (K)” near -0.04, cut for the highest 2% near 0.37. The list shows a part of the results.

Protein sequences, listed by entry. Tags and fused reporters are not part of them. Residues count along the entry.
UniProt Q96EB6, 2-747 limits assumed: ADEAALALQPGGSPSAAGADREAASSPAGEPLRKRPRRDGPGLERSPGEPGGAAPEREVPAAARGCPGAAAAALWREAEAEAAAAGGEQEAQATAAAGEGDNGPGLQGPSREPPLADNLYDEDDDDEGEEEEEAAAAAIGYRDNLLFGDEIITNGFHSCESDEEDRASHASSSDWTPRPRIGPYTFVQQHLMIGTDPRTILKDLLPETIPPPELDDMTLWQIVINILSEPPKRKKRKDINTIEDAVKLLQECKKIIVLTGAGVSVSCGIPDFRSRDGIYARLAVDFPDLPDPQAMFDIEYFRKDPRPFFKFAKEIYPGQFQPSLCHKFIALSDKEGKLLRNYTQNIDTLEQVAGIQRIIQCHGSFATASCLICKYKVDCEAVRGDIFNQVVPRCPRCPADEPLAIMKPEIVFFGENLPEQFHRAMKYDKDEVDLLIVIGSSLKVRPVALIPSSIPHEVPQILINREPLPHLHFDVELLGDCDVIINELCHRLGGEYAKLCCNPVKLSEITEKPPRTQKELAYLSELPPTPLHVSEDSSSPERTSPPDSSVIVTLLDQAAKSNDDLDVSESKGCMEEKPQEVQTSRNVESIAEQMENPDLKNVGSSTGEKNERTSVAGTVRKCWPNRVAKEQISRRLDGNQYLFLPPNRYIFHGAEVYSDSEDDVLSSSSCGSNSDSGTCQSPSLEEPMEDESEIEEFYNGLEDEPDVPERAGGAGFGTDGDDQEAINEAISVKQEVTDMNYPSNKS

biological target: NAD-dependent deacetylase Sirtuin 1 (human, UniProt Q96EB6); assay: primary screen, delta tm; set-up: single well (n = 1, as 'the same TSA'); details: 10 µM
Method: A total of 3,192 compounds extracted from the proposed lists were first screened by thermal shift assay (TSA), which determined a melting temperature shift (ΔTm) of Sirtuin 1 upon the addition of a test compound at a concentration of 10 µM (n = 1) with primary hit criteria of ΔTm > 0.45 K or ΔTm < −1.5 K. Primary hits (48 compounds) were retested in the same assay at three concentrations (5, 10, 20 µM, n = 4) for hit confirmation and for dose-dependency check. Secondary hits (41 compounds) were checked their selectivity for Sirtuin 1 based on counterscreening on unrelated protein targets (bovine carbonic anhydrase (CA) and recombinant SH2 domain of hABL1 kinase (ABL1)) at three different concentrations (5, 10, 20 µM, n = 4), which yielded 38 hit compounds, hereafter referred to as TSA hits. The TSA screening above was conducted in the absence of NAD+. As noted, the structure of Sirtuin 1 is different in the presence of NAD+ and substrate. The chemical profile of TSA hits found from the different conditions could be different. […] As a result, 39 TSA hits were found.

Row | Structure (SMILES) | TSA(with NAD+) / Primary screening (TSA) / delta Tm (K)
1 | CC(NC(=O)COC(=O)CCCN1C(=O)c2cccc3cccc(c23)C1=O)C12CC3CC(CC(C3)C1)C2 (stereo not shown) | -0.11
2 | OCCCCN1CCN(c2ncnc3cc(Cl)ccc23)CC1 | -0.08
3 | Cc1cc(C=C2C(=O)NC(=S)NC2=O)c(C)n1-c1ccccc1Cl | -1.22
4 | NC(=O)c1ccc(NC(=O)COC(=O)/C=C/c2ccc3c(c2)OCO3)cc1 | -0.23
5 | CN(C(=O)c1cc(O)nc2ccccc12)c1ccc2ccccc2c1 | -0.03
6 | O=C(CN1CCN(C(=O)c2cc(-c3ccncc3)nc3ccccc23)CC1)Nc1ccccc1Cl | -0.21
7 | NC(=O)C1CCCCCC1NC(=O)c1ccncc1Cl (stereo not shown) | -0.11
8 | O=C(N/N=C/c1ccc(O)cc1O)C(=O)N/N=C/c1ccc(O)cc1O | 0.06
9 | COc1ccc(/C=C2\Oc3cc(OC)ccc3C2=O)c(OC)c1 | 0.15
10 | CC(=O)Nc1ccc(-c2csc(NC(=O)Cn3[nH]c(=O)ccc3=O)n2)cc1 | 0.05
11 | CC(C)OCCN | -0.12
12 | CC1CN(CC(=O)c2ccccc2Cl)CC(C)O1 (stereo not shown) | -0.22
13 | CN(c1cccc(Cl)c1)S(=O)(=O)c1cccc(C(=O)Nc2ncc(C(N)=O)s2)c1 | 0.31
14 | CCC(C)(C)NC(=O)c1ccc2[nH]c(=O)c(=O)[nH]c2c1 | -0.01
15 | CN(C)c1ccc(CNc2ncnc3ccsc23)cn1 | -0.11
16 | O=C1CC2(CCCCC2)CC(=O)C1=CN/N=C1/C(=O)Nc2ccccc21 | -0.02
17 | Cc1ccc(C)c(C(=O)CCC(=O)OC(C)C(=O)Nc2ccc(C(N)=O)cc2)c1 (stereo not shown) | -0.01
18 | Cc1nc(CSc2nccn2Cc2ccccn2)cs1 | -0.01
19 | c1ccc2[nH]c(-c3nc4c5ccccc5ncn4n3)cc2c1 | 0.01
20 | CN1CCC(NC(=O)c2cnc(N)c(Cl)c2)C1c1ccc(F)cc1 (stereo not shown) | -0.09
21 | COc1ccc(NC(=O)CCN2C(=O)c3ccc(C)cc3C2=O)cc1OCc1cn2ccccc2n1 | -0.11
22 | COCCN(C)CCN | -0.13
23 | N#Cc1c2c(c(Cl)n3c1nc1ccccc13)CCCC2 | 0.03
24 | O=C(CC12CC3CC(CC(C3)C1)C2)NNC(=O)c1ccc(NS(=O)(=O)/C=C/c2ccccc2)cc1 | 0.21

Row | Structure (SMILES) | TSA(with NAD+) / Primary screening (TSA) / delta Tm (K)
25 | Cc1c(C(=O)C2=C(O)C(=O)N(CCCN3CCOCC3)C2c2cccs2)cnn1-c1ccccc1 (stereo not shown) | -0.06
26 | COc1ccnc(N2CCN(C(=O)c3ccc(C(N)=O)s3)CC2)n1 | -0.13
27 | COc1ccc(CN(C)C(=O)c2cnc3ccccn3c2=O)cc1F | 0.15
28 | Cn1cc(S(=O)(=O)N2CCN(C(=O)Cn3cnc4ccc(F)cc4c3=O)CC2)cc1C(N)=O | -0.13
29 | O=C1OC(C(=O)O)Cc2ccccc21 (stereo not shown) | -0.01
30 | COCc1nnc(S)[nH]1 | -0.18
31 | Cc1ccc(C(=O)C2CCN(c3cc(=O)n4ccccc4n3)CC2)cc1 | -0.06
32 | CC(C(=O)Nc1cccc2ccccc12)N1CCc2ccc(O)cc2CC1 (stereo not shown) | -0.03
33 | NS(=O)(=O)Nc1cccc(CNC(=O)CCCc2nc3ccccc3c(=O)[nH]2)c1 | -0.03
34 | CCOc1ccccc1NC(=O)c1cccc(S(=O)(=O)NC(C)C23CC4CC(CC(C4)C2)C3)c1 (stereo not shown) | 0.17
35 | CC(C)C(C)CN (stereo not shown) | 0.06
36 | O=C1NC(=S)N/C1=C\c1ccccc1OCc1ccc(C(=O)O)cc1 | 0.23
37 | N#Cc1ccccc1Sc1ccccc1C(=O)OCC(=O)NC(=O)NC12CC3CC(CC(C3)C1)C2 | 0.06
38 | COc1ccc(CCSc2nnc(-c3cccnc3)n2N)cc1 | 0.01
39 | Cc1ccc2nc(Cl)c(C=C3C(=O)NC(=S)NC3=O)c(=O)n2c1 | -0.22
40 | CCc1nsc(NCc2cccnc2N2CCC(C(N)=O)CC2)n1 | -0.24
41 | OCCN(c1ncnc2c1oc1ccccc12)C1CC1 | -0.19
42 | COc1ccc(CCCC(=O)Nc2ccc(C(N)=O)cc2OCC(F)F)cc1 | -0.09
43 | COCCNc1oc2c(c1-c1ccccc1[N+](=O)[O-])c(=O)oc1c(C)cccc12 | -0.12
44 | Cn1cnc(-c2ccc(OCC(=O)Nc3cccc(C(=O)NC4CC4)c3)cc2)n1 | -0.28
45 | O=C(/C=C/c1ccccn1)NCc1ccc(OCC2CCCO2)cc1 (stereo not shown) | -0.04
46 | O=C(NCC1CCCO1)Nc1ccc(NC(=O)c2ccccn2)cc1 (stereo not shown) | 0.06
47 | O=C1/C(=C/c2ccccc2OC(F)F)Oc2cc(O)ccc21 | 0.15
48 | O=C(O)c1ccc2[nH]c(S)nc2c1 | -0.13

Row | Structure (SMILES) | TSA(with NAD+) / Primary screening (TSA) / delta Tm (K)
49 | CC1CC1c1ccc(CCC(=O)NCC2CCCN(Cc3cccs3)C2)o1 (stereo not shown) | -0.03
50 | Cc1ccc2c(c1)c(=O)n(C)c1nnc(CN3CCc4ccccc4C3)n21 | -0.26
51 | CCc1cc2c(N3CCN(Cc4ccc5c(c4)OCO5)CC3)ncnc2s1 | -0.11
52 | O=C(CCn1ccccc1=O)Nc1cccnc1 | -0.14
53 | CC(O)C(N)CN (stereo not shown) | -0.03
54 | NC(=O)C1CC(O)CN1c1ncnc2cc(-c3ccc(Br)cc3)sc12 (stereo not shown) | -0.28
55 | Cc1ccc(NC(=O)c2cc3c(nc4sccn43)s2)c(O)c1 | 0.31
56 | Cc1nc(N2CCN(c3ncccc3C(N)=O)CC2)c2c3c(sc2n1)CCC3 | 0.02
57 | O=C(Nc1ccccc1Cc1ccccc1)C12CC3CC(CC(Br)(C3)C1)C2 | -0.16
58 | Cc1cccc(-n2ccnc2SCC(=O)Nc2ccc(S(=O)(=O)Nc3nccs3)cc2)c1C | 0.13
59 | O=C(NC1CCN(C(=O)Nc2ccc([N+](=O)[O-])cc2)CC1)c1ccccn1 | -0.15
60 | NC1=Nc2nc3ccccc3n2C(c2ccc(-c3ccc(C(=O)O)cc3)o2)N1 (stereo not shown) | 1.27
61 | CN/C(=N/c1ccc2ccccc2c1)c1ccccc1 | -0.05
62 | O=C(CCc1nc2ccccc2c(=O)[nH]1)Nc1cccc(S(=O)(=O)NCc2ccco2)c1 | 0.05
63 | Cc1c(C)n(-c2ccc(O)cc2)c2ncnc(N)c12 | -0.02
64 | Cc1nc(C(=O)NC(Cc2ccccc2)C(=O)N(C)C)ccc1C#N (stereo not shown) | -0.01
65 | Cc1nn(C)c2nc(-c3ccccc3)cc(C(=O)N3CCN(Cc4ccccc4F)CC3)c12 | -0.28
66 | Cc1cc(C)n(-c2nc(C)nc3c2cnn3-c2ccccc2)n1 | -0.12
67 | CC1CCCN(C(=O)CSc2nncn2-c2ccccc2)C1 (stereo not shown) | -0.12
68 | COc1ccc(C2C(C(=O)c3cccs3)=C(O)C(=O)N2CCCN2CCOCC2)cc1OC (stereo not shown) | -0.03
69 | CC(=O)N1Cc2ccccc2CC1C(=O)NC1CCOc2ccccc21 (stereo not shown) | -0.13
70 | CC(C)(C)C(=O)Nc1cccc(NC2CCCCNC2=O)c1 (stereo not shown) | 0.06
71 | C=CC(N)CO (stereo not shown) | -0.15
72 | COc1cccc(C(=O)C2=C(O)C(=O)N(CCCN3CCOCC3)C2c2cccc(F)c2)c1 (stereo not shown) | 0.08

22 compounds from above, sorted by heavy-atom count, high to low:
Row | Structure (SMILES) | TSA(with NAD+) / Primary screening (TSA) / delta Tm (K)
1 | CC(NC(=O)COC(=O)CCCN1C(=O)c2cccc3cccc(c23)C1=O)C12CC3CC(CC(C3)C1)C2 (stereo not shown) | -0.11
21 | COc1ccc(NC(=O)CCN2C(=O)c3ccc(C)cc3C2=O)cc1OCc1cn2ccccc2n1 | -0.11
24 | O=C(CC12CC3CC(CC(C3)C1)C2)NNC(=O)c1ccc(NS(=O)(=O)/C=C/c2ccccc2)cc1 | 0.21
34 | CCOc1ccccc1NC(=O)c1cccc(S(=O)(=O)NC(C)C23CC4CC(CC(C4)C2)C3)c1 (stereo not shown) | 0.17
28 | Cn1cc(S(=O)(=O)N2CCN(C(=O)Cn3cnc4ccc(F)cc4c3=O)CC2)cc1C(N)=O | -0.13
62 | O=C(CCc1nc2ccccc2c(=O)[nH]1)Nc1cccc(S(=O)(=O)NCc2ccco2)c1 | 0.05
43 | COCCNc1oc2c(c1-c1ccccc1[N+](=O)[O-])c(=O)oc1c(C)cccc12 | -0.12
60 | NC1=Nc2nc3ccccc3n2C(c2ccc(-c3ccc(C(=O)O)cc3)o2)N1 (stereo not shown) | 1.27
59 | O=C(NC1CCN(C(=O)Nc2ccc([N+](=O)[O-])cc2)CC1)c1ccccn1 | -0.15
69 | CC(=O)N1Cc2ccccc2CC1C(=O)NC1CCOc2ccccc21 (stereo not shown) | -0.13
36 | O=C1NC(=S)N/C1=C\c1ccccc1OCc1ccc(C(=O)O)cc1 | 0.23
20 | CN1CCC(NC(=O)c2cnc(N)c(Cl)c2)C1c1ccc(F)cc1 (stereo not shown) | -0.09
39 | Cc1ccc2nc(Cl)c(C=C3C(=O)NC(=S)NC3=O)c(=O)n2c1 | -0.22
67 | CC1CCCN(C(=O)CSc2nncn2-c2ccccc2)C1 (stereo not shown) | -0.12
14 | CCC(C)(C)NC(=O)c1ccc2[nH]c(=O)c(=O)[nH]c2c1 | -0.01
63 | Cc1c(C)n(-c2ccc(O)cc2)c2ncnc(N)c12 | -0.02
52 | O=C(CCn1ccccc1=O)Nc1cccnc1 | -0.14
29 | O=C1OC(C(=O)O)Cc2ccccc21 (stereo not shown) | -0.01
48 | O=C(O)c1ccc2[nH]c(S)nc2c1 | -0.13
30 | COCc1nnc(S)[nH]1 | -0.18
11 | CC(C)OCCN | -0.12
71 | C=CC(N)CO (stereo not shown) | -0.15

(listing goes on)

Row | Structure (SMILES) | TSA(with NAD+) / Primary screening (TSA) / delta Tm (K)
73 | CCCNC(=O)C(C#N)C(=O)c1cc2ccc(C)cc2nc1C (stereo not shown) | -0.06
74 | CC(C)C(CNC(=O)COc1ccc(C(N)=O)cc1)N1CCc2ccccc2C1 (stereo not shown) | -0.01
75 | C=CCOc1ccc(C(=O)C2=C(O)C(=O)N(CCN3CCOCC3)C2c2ccc(OCC)cc2)cc1 (stereo not shown) | -0.03
76 | O=C(CC(c1ccccc1)c1ccccc1)N1CCN(c2ccc([N+](=O)[O-])c3cnccc23)CC1 | -0.06
77 | COc1ccc(Cl)cc1NC(=O)CSc1nnc(-c2ccc(Cl)cc2)n1N | 0.09
78 | O=C1COc2cc(C(=O)Nc3ccc4c(c3)-c3ccccc3C4)ccc2N1 | 0.11
79 | CCCc1ccc(C(Nc2ccc3nnnn3n2)C(C)C)cc1 (stereo not shown) | -0.11
80 | O=C(CNC1=NS(=O)(=O)c2ccccc21)Nc1ccc(N2CCN(Cc3ccccc3)CC2)cc1 | 0.09
81 | O=C(C1=C(O)C(=O)N(CCCN2CCOCC2)C1c1cccs1)c1cc2ccccc2o1 (stereo not shown) | -0.05
82 | CC1CC1C(=O)NCc1ccccc1-c1ccc(CN2CCCC2)cc1 (stereo not shown) | -0.21
83 | CN(c1ccccc1)S(=O)(=O)c1cccc(NC(=O)c2cccc(C#N)c2)c1 | 0.08
84 | CC1CCc2[nH]c3ccc(C(=O)N(C)C)cc3c2C1 (stereo not shown) | -0.02
85 | Cc1nc(C)c(C(=O)C2=C(O)C(=O)N(CCN3CCOCC3)C2c2ccco2)s1 (stereo not shown) | -0.11
86 | CC1Cc2ccccc2N1c1ncnc2ccsc12 (stereo not shown) | -0.09
87 | Cc1[nH]c2ccccc2c1C(=O)CN1CCC(C(N)=O)CC1 | -0.03
88 | Cc1cc(C(=O)COC(=O)c2ccc(-c3ccc(O)cc3)cc2)c(C)n1C | -0.06
89 | Oc1ccc2ccccc2c1/C=N/c1c(F)c(F)c(F)c(F)c1F | -0.23
90 | N=C(N)NCCN | -0.13
91 | CC1CCCC(NC(=O)COC(=O)CCCOc2ccccc2)C1C (stereo not shown) | -0.13
92 | NC(=O)C1CCCCC1Nc1ncnc2cc(F)c(F)cc12 (stereo not shown) | 0.07
93 | COc1cccc(NN=C2C(=O)NC(=S)NC2=O)c1 | -0.01
94 | O=C(O)C(=O)Nc1ccccc1 | 0.25
